Data from doi:10.1101/257543 (bioRxiv, 2018).
Results are given in words; binding and its absence hold for the method and conditions named.

Experiments:
Assay in all cases: SEC
[1] = target: T1, BRI1 cytoplasmic domain (residues 814-1196) (A. thaliana), O22476; settings: remark: other sources report otherwise
T1 chain: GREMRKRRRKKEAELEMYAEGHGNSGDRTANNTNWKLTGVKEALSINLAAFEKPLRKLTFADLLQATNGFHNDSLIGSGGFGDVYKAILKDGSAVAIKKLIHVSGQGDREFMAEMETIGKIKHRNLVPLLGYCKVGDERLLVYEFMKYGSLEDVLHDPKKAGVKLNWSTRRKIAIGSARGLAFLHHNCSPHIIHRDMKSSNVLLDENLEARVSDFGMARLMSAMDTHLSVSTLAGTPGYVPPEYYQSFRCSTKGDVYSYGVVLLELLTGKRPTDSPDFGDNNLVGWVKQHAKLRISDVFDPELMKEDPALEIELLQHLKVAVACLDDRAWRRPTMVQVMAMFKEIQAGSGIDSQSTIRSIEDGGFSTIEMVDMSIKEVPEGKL

[2] = target: BRI1 LRR ectodomain (BRI1^1-799) (A. thaliana) (UniProt O22476)
[3] = target: SERK1 LRR ectodomain (SERK1^24-213) (A. thaliana) (UniProt Q94AG2)
[4] = target: T2, SERK3 cytoplasmic domain (residues 250-615) (A. thaliana), Q94F62; settings: remark: other sources report otherwise
T2 chain: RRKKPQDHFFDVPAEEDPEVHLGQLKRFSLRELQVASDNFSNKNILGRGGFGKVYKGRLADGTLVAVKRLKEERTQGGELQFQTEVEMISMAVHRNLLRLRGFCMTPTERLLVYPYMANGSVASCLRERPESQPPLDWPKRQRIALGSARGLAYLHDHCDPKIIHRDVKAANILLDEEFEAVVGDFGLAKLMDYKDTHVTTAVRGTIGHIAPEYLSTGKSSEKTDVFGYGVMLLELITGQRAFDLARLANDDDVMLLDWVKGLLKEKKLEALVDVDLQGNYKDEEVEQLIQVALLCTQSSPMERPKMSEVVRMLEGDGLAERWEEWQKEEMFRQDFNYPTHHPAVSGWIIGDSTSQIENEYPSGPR

B1: BRI1 cytoplasmic domain (residues 814-1196), O22476 814-1196 (domain or fragment)
chain: T1 chain
B1 was tested, and the binding [1] was “no binding”.

B2: BIR2 LRR ectodomain (BIR2^1-222), wild type (domain or fragment, A. thaliana, UniProt Q9LSI9 29-222, looked up)
chain: ADEDDIRCLRGLKASLTDPQNALKSWNFDNTTLGFLCNFVGVSCWNNQENRVINLELRDMGLSGKIPDSLQYCASLQKLDLSSNRLSGNIPTELCNWLPFLVSLDLSNNELNGEIPPDLAKCSFVNSLVLSDNRLSGQIPVQFSALGRLGRFSVANNDLSGRIPVFFSSPSYSSDDFSGNKGLCGRPLSSSCGG
modifications: N-glycan at Asn58 (in the crystal structure)
B2 was tested, and the binding [2] was “no binding”.

B3: SERK1 LRR ectodomain (SERK1^24-213) (domain or fragment, UniProt Q94AG2 24-213)
chain: ASANLEGDALHTLRVTLVDPNNVLQSWDPTLVNPCTWFHVTCNNENSVIRVDLGNAELSGHLVPELGVLKNLQYLELYSNNITGPIPSNLGNLTNLVSLDLYLNSFSGPIPESLGKLSKLRFLRLNNNSLTGSIPMSLTNITTLQVLDLSNNRLSGSVPDNGSFSLFTPISFANNLDLCGPVTSHPCPGS
modifications: N-glycosylated (fully glycosylated in the crystal; sites not given)
For B3, the binding [3] was “no binding”.

B4: SERK3 cytoplasmic domain (residues 250-615), Q94F62 250-615 (domain or fragment)
chain: T2 chain
In the case of B4, the binding [4] is reported as “no binding”.
